Test results from patent publication US20160090556A1, “PRODUCTS COMPRISING MALODOR REDUCTION MATERIALS” (The Procter & Gamble Company, priority 2014, published 2016).

Test: Melamine formaldehyde PMC leakage
Settings: not given
In the case of `CC1C[C@H]2C3CCC(C3)[C@H]2CC1=O` (stereo partly drawn) [Material 980], the “Melamine formaldehyde PMC leakage (Comment Code J)” value is reported as “J (Melamine formaldehyde PMC leakage less than or equal to 5%)”.
In the case of `CC1CC=CCCCCCCCC(=O)OCC1` (stereo not drawn) [Material 1099], the “Melamine formaldehyde PMC leakage (Comment Code J)” value is reported as “J (Melamine formaldehyde PMC leakage less than or equal to 5%)”.
For `CC(C)=CCC=C(C)C1CC=C(C)CC1` (stereo not drawn) [Material 719], the “Melamine formaldehyde PMC leakage (Comment Code J)” value was “J (Melamine formaldehyde PMC leakage less than or equal to 5%)”.
With `C=C1C2CCC(C2)C1(C)CCC=C(C)CO` (stereo not drawn) [Material 616] the “Melamine formaldehyde PMC leakage (Comment Code J)” value was “J (Melamine formaldehyde PMC leakage less than or equal to 5%)”.
For `CC1=CC2C(C(C)C)CCC(C)(O)C2CC1` (stereo not drawn) [Material 1047], the “Melamine formaldehyde PMC leakage (Comment Code J)” value was “J (Melamine formaldehyde PMC leakage less than or equal to 5%)”.

Same assay, conditions: class code letter within Comment Code
For `C=CCCCCCCCCC(=O)OCCC(C)C` [Material 234], the “Melamine formaldehyde PMC leakage (Comment Code J)” value was “J (Melamine formaldehyde PMC leakage less than or equal to 5%)”.
For `COC(C=C(C)CCC=C(C)C)OC` [Material 520], the “Melamine formaldehyde PMC leakage (Comment Code J)” value was “J (Melamine formaldehyde PMC leakage less than or equal to 5%)”.
In the case of `CCCCCCCCCCCCCC#N` [Material 38], the “Melamine formaldehyde PMC leakage (Comment Code J)” value is reported as “J (Melamine formaldehyde PMC leakage less than or equal to 5%)”.
For `C=C1CCOC(c2ccc(O)c(OC)c2)C1` (stereo not drawn) [Material 373], the “Melamine formaldehyde PMC leakage (Comment Code J)” value was “J (Melamine formaldehyde PMC leakage less than or equal to 5%)”.
In the case of `C=CC1(C)CCC(C(C)C)=CC1C(=C)C` (stereo not drawn) [Material 461], the “Melamine formaldehyde PMC leakage (Comment Code J)” value is reported as “J (Melamine formaldehyde PMC leakage less than or equal to 5%)”.
With `C=CC(O)(CC)CCC=C(C)C` (stereo not drawn) [Material 390] the “Melamine formaldehyde PMC leakage (Comment Code J)” value was “J (Melamine formaldehyde PMC leakage less than or equal to 5%)”.
With `O=C(C=Cc1ccccc1)OCC=Cc1ccccc1` [Material 552] the “Melamine formaldehyde PMC leakage (Comment Code J)” value was “J (Melamine formaldehyde PMC leakage less than or equal to 5%)”.
With `CC(C=O)Cc1cccc(C(C)(C)C)c1` (stereo not drawn) [Material 134] the “Melamine formaldehyde PMC leakage (Comment Code J)” value was “J (Melamine formaldehyde PMC leakage less than or equal to 5%)”.
For `C=CCCCCCCCCC#N` [Material 352], the “Melamine formaldehyde PMC leakage (Comment Code J)” value was “J (Melamine formaldehyde PMC leakage less than or equal to 5%)”.
For `CCCCCCCCCCCCCC=O` [Material 36], the “Melamine formaldehyde PMC leakage (Comment Code J)” value was “J (Melamine formaldehyde PMC leakage less than or equal to 5%)”.
With `CC(C)C(=O)OCC=Cc1ccccc1` [Material 550] the “Melamine formaldehyde PMC leakage (Comment Code J)” value was “J (Melamine formaldehyde PMC leakage less than or equal to 5%)”.
In the case of `C=CC(C)(O)CCC=C(C)CCC=C(C)CCC=C(C)C` (stereo not drawn) [Material 303], the “Melamine formaldehyde PMC leakage (Comment Code J)” value is reported as “J (Melamine formaldehyde PMC leakage less than or equal to 5%)”.
In the case of `CC(=O)OC1(C)CCC(=C(C)C)CC1` (stereo not drawn) [Material 317], the “Melamine formaldehyde PMC leakage (Comment Code J)” value is reported as “J (Melamine formaldehyde PMC leakage less than or equal to 5%)”.
With `C=CC(=C)CCCC(C)(C)OC(C)=O` [Material 35] the “Melamine formaldehyde PMC leakage (Comment Code J)” value was “J (Melamine formaldehyde PMC leakage less than or equal to 5%)”.
For `C=C1C2CCC(C)(C)C1CCC(OC)C2` (stereo not drawn) [Material 7], the “Melamine formaldehyde PMC leakage (Comment Code J)” value was “J (Melamine formaldehyde PMC leakage less than or equal to 5%)”.
With `CCCCCC/C=C/C(=O)OC` [Material 67] the “Melamine formaldehyde PMC leakage (Comment Code J)” value was “J (Melamine formaldehyde PMC leakage less than or equal to 5%)”.

Same assay, conditions: code letter J
With `CC1CCOC(c2ccccc2)C1` (stereo not drawn) [Material 420] the “Comment Code: Melamine formaldehyde PMC leakage” value was “J (Melamine formaldehyde PMC leakage less than or equal to 5%)”.
For `CCC(=O)OC(C)c1ccccc1` (stereo not drawn) [Material 96], the “Comment Code: Melamine formaldehyde PMC leakage” value was “J (Melamine formaldehyde PMC leakage less than or equal to 5%)”.
With `CCC(C)(CCCC(C)C)OC(C)=O` (stereo not drawn) [Material 1055] the “Comment Code: Melamine formaldehyde PMC leakage” value was “J (Melamine formaldehyde PMC leakage less than or equal to 5%)”.
In the case of `C=C1C2CCC(C2)C1(C)CCC=C(C)CO` (stereo not drawn) [Material 616], the “Comment Code: Melamine formaldehyde PMC leakage” value is reported as “J (Melamine formaldehyde PMC leakage less than or equal to 5%)”.
With `C=C1C2CCC(C)(C)C1CCC(OC)C2` (stereo not drawn) [Material 7] the “Comment Code: Melamine formaldehyde PMC leakage” value was “J (Melamine formaldehyde PMC leakage less than or equal to 5%)”.
With `CCC(=O)OCCc1ccccc1` [Material 835] the “Comment Code: Melamine formaldehyde PMC leakage” value was “J (Melamine formaldehyde PMC leakage less than or equal to 5%)”.
